# Data published in paper PMC5106528, “High-Throughput Toxicity and Phenotypic Screening of 3D Human Neural Progenitor Cell Cultures on a Microarray Chip Platform” (Stem Cell Reports, 2016).
# Like-named read-outs stand apart in the source and are kept apart here.
# Columns and labels:
# [1] = system: differentiating ReNcell VM NPCs; assay: cells; details: Homo sapiens
# Experimental: (§1) On-chip cultures of undifferentiated and 10-day differentiated NPCs were stamped with WellChips filled with compound-containing solutions and incubated for 72 hr prior to viability assessment. Vehicle-control normalized viabilities were plotted against compound concentration to generate dose-response plots (Figures 5A and S4). […] The sigmoidal fits for undifferentiated and differentiating NPCs were compared to assess whether differential sensitivities (i.e., different IC50 values) existed for the screened compounds.
# (§2) Cell viability was determined in 3D on-chip cultures using a mammalian cell viability assay (LIVE/DEAD, Invitrogen). Prior to the assay, dead cell controls were prepared with 30 min incubation in a WellChip containing either […] 0.5% (w/v) saponin-DMEM/F12 medium in its microwells. […] After staining, PillarChips were rinsed twice with warm DPBS and incubated in DPBS containing 50 mM trehalose (Sigma) for 10 min before rapid drying with nitrogen and storage in the dark. Dried PillarChips were imaged with a Thermo Scientific Cellomics ArrayScan VTI high-content system.
# (§3) Undifferentiated and differentiated microchip cultures were prepared as described above. Chemicals were purchased from Sigma or the NIH Small Molecule Repository (Table S2). Concentrated stocks were prepared and diluted into ReNcell Maintenance Medium to prepare the highest screened concentration solution for each compound. Four-fold serial dilutions were made in ReNcell Maintenance Medium, with all solutions having a final concentration of 0.5% or 1% DMSO (v/v) and 20 μg/mL Matrigel. For undifferentiated cultures, the solutions also contained 20 ng/mL of EGF and FGF2. These solutions were printed into WellChips, covered with a gas-permeable membrane, and warmed at 37°C for at least 5 min before stamping with cells. Each WellChip contained six compounds each at six concentrations (n = 10 biological replicates for each concentration) and the appropriate medium containing 0.5% or 1% DMSO for vehicle and dead controls (n = 32 biological replicates per control). PillarChip cultures were incubated with compounds for 72 hr with daily medium exchange to freshly prepared WellChips containing compounds at the appropriate concentrations. […] On-chip toxicity screens were repeated three times for undifferentiated and differentiated cultures. […]
# [2] = system: undifferentiated ReNcell VM NPCs; assay: cells; details: Homo sapiens, 72 h
# Experimental: as §1, §2, §3
smiles,measurement,setting,value
CN(C)CCOC(c1ccccc1)c1ccccc1 [Diphenhydramine],IC50,[1]; read-out: Viability Effects Differentiating IC50,189 µM
same,IC50,[1]; read-out: Viability Effects Differentiating log(IC50 ± SEM) (converted),200 µM
same,IC50,[2]; read-out: Viability Effects Undifferentiated IC50,257 µM
same,IC50,[2]; read-out: Viability Effects Undifferentiated log(IC50 ± SEM) (converted),257 µM
